Experimental data reported in paper doi:10.1101/2020.09.03.282368.
No constants are given. Whether binding was seen depends on the method and setting. Binding seen in cells or lysates may run through a third protein. Some binding calls cover weakened binding; strength is not graded here.

Sequences of proteins named here, by UniProt entry; tags and fusion partners are left off.
UniProt A2AWL7: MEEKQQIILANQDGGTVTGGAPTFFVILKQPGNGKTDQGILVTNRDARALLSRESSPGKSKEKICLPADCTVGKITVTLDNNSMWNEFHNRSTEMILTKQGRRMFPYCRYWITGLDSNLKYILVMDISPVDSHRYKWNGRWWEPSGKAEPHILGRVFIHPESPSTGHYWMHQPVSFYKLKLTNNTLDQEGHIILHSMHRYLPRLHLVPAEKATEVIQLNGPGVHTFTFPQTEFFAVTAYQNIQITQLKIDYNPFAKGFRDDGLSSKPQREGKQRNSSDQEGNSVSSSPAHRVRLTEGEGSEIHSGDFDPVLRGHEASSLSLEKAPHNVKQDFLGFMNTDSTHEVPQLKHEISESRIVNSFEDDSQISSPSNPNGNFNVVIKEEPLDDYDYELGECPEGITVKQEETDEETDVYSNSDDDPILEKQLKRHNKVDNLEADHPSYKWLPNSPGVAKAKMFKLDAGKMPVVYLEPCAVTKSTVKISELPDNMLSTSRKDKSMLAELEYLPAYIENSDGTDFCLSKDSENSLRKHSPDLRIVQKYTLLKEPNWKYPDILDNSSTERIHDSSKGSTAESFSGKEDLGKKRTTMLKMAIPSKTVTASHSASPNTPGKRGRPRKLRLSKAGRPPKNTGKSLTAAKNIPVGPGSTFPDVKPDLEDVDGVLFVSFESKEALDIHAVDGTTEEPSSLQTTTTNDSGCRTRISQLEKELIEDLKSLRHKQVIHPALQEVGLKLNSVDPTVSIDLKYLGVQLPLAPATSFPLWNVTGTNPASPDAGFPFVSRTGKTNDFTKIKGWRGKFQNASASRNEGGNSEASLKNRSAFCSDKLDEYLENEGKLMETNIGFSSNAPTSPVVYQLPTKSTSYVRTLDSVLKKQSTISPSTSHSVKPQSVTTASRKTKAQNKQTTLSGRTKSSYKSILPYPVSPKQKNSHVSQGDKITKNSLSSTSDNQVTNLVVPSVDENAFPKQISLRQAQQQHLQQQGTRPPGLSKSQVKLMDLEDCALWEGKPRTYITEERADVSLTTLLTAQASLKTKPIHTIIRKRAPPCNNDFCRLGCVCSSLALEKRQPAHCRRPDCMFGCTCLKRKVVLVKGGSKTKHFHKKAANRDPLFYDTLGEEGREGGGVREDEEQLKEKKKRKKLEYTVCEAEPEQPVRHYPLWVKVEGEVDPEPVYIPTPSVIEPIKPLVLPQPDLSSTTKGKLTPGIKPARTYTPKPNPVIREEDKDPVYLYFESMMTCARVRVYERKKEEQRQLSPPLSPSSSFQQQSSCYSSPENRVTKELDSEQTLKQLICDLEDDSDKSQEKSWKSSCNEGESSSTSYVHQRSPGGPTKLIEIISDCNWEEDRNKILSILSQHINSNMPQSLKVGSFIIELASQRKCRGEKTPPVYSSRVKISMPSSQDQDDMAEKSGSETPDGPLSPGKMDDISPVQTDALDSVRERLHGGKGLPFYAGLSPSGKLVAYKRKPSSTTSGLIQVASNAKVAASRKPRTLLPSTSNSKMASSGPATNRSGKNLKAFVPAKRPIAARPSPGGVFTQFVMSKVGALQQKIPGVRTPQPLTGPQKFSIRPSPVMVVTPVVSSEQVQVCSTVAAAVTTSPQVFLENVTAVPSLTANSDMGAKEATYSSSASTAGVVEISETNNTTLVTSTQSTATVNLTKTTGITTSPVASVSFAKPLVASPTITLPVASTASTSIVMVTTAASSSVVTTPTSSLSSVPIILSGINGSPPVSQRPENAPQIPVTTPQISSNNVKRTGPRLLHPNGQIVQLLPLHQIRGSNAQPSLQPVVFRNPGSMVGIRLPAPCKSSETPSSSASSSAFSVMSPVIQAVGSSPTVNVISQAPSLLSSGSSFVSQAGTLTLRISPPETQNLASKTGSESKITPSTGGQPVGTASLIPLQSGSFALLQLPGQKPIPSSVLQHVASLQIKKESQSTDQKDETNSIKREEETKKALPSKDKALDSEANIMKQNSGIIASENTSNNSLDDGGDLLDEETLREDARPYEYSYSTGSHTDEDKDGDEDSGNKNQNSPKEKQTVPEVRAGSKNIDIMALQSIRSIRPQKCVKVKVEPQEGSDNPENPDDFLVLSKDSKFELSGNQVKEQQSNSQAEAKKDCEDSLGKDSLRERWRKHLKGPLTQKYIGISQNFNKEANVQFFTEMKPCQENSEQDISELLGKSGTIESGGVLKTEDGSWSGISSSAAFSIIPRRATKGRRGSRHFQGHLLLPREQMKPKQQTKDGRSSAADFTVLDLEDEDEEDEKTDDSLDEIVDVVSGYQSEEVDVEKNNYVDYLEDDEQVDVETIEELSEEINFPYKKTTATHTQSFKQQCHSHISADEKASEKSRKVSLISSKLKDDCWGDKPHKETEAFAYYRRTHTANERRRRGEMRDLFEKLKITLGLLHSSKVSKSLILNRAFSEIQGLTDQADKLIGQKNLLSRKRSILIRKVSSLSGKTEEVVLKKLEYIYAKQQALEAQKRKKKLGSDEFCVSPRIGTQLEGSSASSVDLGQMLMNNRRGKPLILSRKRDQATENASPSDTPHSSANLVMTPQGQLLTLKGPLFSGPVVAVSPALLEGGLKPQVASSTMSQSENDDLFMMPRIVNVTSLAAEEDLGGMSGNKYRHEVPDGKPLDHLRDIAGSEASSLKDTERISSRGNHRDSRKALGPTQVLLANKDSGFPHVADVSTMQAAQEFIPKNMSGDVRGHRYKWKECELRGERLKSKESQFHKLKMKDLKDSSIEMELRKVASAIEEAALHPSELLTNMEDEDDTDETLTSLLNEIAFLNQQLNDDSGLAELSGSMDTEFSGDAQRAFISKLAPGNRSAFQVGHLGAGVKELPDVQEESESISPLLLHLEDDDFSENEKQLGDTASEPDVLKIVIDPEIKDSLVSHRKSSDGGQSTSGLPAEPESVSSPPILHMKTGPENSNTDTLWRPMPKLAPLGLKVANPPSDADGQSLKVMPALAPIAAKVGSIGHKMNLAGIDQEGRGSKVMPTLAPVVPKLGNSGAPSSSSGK
UniProt P61244: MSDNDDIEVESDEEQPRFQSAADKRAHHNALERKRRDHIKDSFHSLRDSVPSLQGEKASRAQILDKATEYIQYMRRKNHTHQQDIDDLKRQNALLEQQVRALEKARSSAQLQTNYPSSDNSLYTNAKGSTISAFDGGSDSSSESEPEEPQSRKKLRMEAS
UniProt Q969R5: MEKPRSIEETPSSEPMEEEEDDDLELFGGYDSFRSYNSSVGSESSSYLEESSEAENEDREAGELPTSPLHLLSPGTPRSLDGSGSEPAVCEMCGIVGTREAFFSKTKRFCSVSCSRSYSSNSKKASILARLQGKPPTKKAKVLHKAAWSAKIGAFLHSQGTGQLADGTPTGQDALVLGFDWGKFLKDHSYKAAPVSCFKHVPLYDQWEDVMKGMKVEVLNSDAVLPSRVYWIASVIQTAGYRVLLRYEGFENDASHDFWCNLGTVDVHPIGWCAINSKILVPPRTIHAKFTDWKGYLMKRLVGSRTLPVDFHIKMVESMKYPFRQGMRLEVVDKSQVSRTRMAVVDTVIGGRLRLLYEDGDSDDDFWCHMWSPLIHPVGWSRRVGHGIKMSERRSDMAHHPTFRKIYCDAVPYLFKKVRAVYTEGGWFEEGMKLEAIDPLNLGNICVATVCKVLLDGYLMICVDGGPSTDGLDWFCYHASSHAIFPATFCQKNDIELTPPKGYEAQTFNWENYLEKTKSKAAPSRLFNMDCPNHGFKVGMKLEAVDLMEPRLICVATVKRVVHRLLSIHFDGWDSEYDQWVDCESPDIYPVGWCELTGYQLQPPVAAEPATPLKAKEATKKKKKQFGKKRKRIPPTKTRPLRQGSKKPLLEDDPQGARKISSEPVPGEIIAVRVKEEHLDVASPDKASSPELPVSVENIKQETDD
UniProt Q99496: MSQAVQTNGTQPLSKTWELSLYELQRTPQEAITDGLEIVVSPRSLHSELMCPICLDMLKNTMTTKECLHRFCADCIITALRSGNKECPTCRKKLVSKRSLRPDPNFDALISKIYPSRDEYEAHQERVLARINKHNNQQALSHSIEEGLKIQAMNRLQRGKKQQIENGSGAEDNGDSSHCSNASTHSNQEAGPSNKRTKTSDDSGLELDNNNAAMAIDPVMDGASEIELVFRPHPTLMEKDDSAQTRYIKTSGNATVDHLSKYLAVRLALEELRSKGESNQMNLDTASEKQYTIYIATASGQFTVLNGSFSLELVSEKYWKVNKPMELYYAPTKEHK
UniProt Q13185: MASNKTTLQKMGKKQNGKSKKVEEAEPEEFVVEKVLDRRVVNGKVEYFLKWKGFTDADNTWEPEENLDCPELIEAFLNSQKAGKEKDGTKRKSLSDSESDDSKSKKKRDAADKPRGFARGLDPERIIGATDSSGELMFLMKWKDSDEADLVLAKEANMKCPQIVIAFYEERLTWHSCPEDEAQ
UniProt Q15022: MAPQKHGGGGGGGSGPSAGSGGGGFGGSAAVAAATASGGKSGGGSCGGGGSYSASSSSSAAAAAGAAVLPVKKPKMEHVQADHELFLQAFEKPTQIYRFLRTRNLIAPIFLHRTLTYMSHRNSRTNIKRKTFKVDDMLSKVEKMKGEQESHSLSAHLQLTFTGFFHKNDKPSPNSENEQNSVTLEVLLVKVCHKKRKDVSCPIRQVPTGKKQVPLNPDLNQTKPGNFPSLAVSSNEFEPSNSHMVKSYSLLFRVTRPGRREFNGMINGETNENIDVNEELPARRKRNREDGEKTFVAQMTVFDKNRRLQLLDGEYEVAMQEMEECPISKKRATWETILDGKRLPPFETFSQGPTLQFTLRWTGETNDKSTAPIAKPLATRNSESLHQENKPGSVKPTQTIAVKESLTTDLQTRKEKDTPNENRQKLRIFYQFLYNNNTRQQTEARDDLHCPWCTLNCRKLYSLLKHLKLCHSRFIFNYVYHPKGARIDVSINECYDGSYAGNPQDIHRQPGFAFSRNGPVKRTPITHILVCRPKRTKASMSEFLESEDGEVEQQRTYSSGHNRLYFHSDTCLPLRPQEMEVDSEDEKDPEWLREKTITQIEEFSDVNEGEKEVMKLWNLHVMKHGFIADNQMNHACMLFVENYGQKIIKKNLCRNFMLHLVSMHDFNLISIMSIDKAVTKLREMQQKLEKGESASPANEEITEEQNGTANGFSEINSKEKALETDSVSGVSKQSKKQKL

Target: Flag-tagged wildtype MGA (mouse) (UniProt A2AWL7)
Experiment: co-IP

Row | Molecule | binding
1 | MAX (from UniProt P61244 1-160) | binds
2 | L3MBTL2 (from UniProt Q969R5 1-705) | binds
3 | RING1B (from UniProt Q99496 1-336) | binds
4 | HP1γ (from UniProt Q13185 1-183) | binds

More lines, now with the values ahead:

Row | binding | Molecule
5 | no binding | SUZ12 (from UniProt Q15022 1-739)
6 | binds | PCGF6 (protein, UniProt Q9BYE7 1-350) MEGVAVVTAGSVGAAKTEGAAALPPPPPVSPPALTPAPAAGEEGPAPLSETGAPGCSGSRPPELEPERSLGRFRGRFEDEDEELEEEEELEEEEEEEEEDMSHFSLRLEGGRQDSEDEEERLINLSELTPYILCSICKGYLIDATTITECLHTFCKSCIVRHFYYSNRCPKCNIVVHQTQPLYNIRLDRQLQDIVYKLVINLEEREKKQMHDFYKERGLEVPKPAVPQPVPSSKGRSKKVLESVFRIPPELDMSLLLEFIGANEGTGHFKPLEKKFVRVSGEATIGHVEKFLRRKMGLDPACQVDIICGDHLLEQYQTLREIRRAIGDAAMQDGLLVLHYGLVVSPLKIT
